Measurements reported in PubChem BioAssay AID602196 (INSERM, 2012)
Test: 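Modifiers of cisplatin sensitivity in A549 cells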. Cell system: human A549 lung cancer cells. Reagent: siRNA pair against human genes. Timing: 48 h transfection before cisplatin; time from cisplatin to read-out not stated. Conditions: cisplatin at a dose killing half of control-siRNA cells; exact dose and duration not given. Measured: 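Shift in cisplatin death relative to control siRNA, from -50 (all cells die) to +50 (no cells die); siRNAs harmful on their own scored 0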. Scale: two-siRNA summed score (-2 to +2): higher = both siRNAs protect from cisplatin killing; -2 means both sensitise; mean protection from cisplatin (shift in death) and protection from cisplatin (shift in death), siRNA C and protection from cisplatin (shift in death), siRNA D: higher = protection from cisplatin killing. Call rule: 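siRNAs harmful alone (LDH or WST-1) get 0; others get +1 for less and -1 for more cisplatin killing; genes are active when the two siRNAs give the same sign, summing to ±2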. Calls: active = both siRNAs shift cisplatin killing the same way; inactive = no consistent shift, or siRNA harmful alone.
In all, the deposit lists about 23,000 reagents; this is an unselected part. Of all reagents, 455 (2%) got an active call. 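Active includes both protection and sensitisation; some change values fall well beyond the stated -50 to +50 range.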 Unmarked entries are inactive. Not stated in the record: the amount of reagent.

target	two-siRNA summed score (-2 to +2)	mean protection from cisplatin (shift in death) (%)	protection from cisplatin (shift in death), siRNA C (%)	protection from cisplatin (shift in death), siRNA D (%)
KHSRP (GeneID 8570)	-2 (active)	-25.4	-26.9	-23.8
SNAP25 (GeneID 6616)	0	-11.2	-11.2	-11.3
KRT80 (GeneID 144501)	0	8.5	3.3	13.7
TREML1 (GeneID 340205)	1	13.1	9.1	17.2
DNAJB11 (GeneID 51726)	0	-7.3	-25.1	10.6
TRPM1 (GeneID 4308)	-1	-18.1	-26.7	-9.5
RPS23 (GeneID 6228)	0	6.6	5.4	7.7
OR51S1 (GeneID 119692)	0	0.8	5.5	-3.9
CTPS1 (GeneID 1503)	0	-0.7	-11	9.6
ZNF676 (GeneID 163223)	1	9.2	22	-3.6
NKX3-2 (GeneID 579)	1	17.4	8	26.7
NOP58 (GeneID 51602)	0	-9.5	-8.2	-10.8
SPANXA2 (GeneID 728712)	0	1.1	-8.1	10.4
FOLR1 (GeneID 2348)	-1	-24.8	-20.2	-29.4
FRS2 (GeneID 10818)	-1	-7.6	-6.3	-9
KCNJ2 (GeneID 3759)	-1	-22.3	-8.6	-36
APCS (GeneID 325)	0	4.3	7	1.5
LOC388254	0	3.6	13.1	-5.9
PNP (GeneID 4860)	0	-1.9	-2.3	-1.5
RALGPS1 (GeneID 9649)	0	-9.6	-15.7	-3.6
HSF2 (GeneID 3298)	0	-8.3	-13.7	-3
OR5M11 (GeneID 219487)	0	-6.3	-12.7	0.2
NOG (GeneID 9241)	1	13.2	2.4	24
CD22 (GeneID 933)	0	-5.2	-17.3	6.9
ALPG (GeneID 251)	0	-1.4	-4.4	1.7
FGF14 (GeneID 2259)	0	18.3	16.7	19.8
ITGB3BP (GeneID 23421)	-1	-15.3	-19.5	-11.2
LOC389702	0	1.5	-4.4	7.4
LOC388798	0	12.5	14.5	10.4
NEUROD6 (GeneID 63974)	0	-11.1	-9.9	-12.3
LOC400939	1	23.8	20.7	26.8
HMMR (GeneID 3161)	0	21.8	38.9	4.6
VSTM2B-DT (GeneID 284395)	1	2.8	-10.7	16.3
LOC441902	1	14.2	15.8	12.5
NPM2 (GeneID 10361)	-1	-12.4	-12.5	-12.3
PLCG1 (GeneID 5335)	0	2.3	-2	6.6
LOC127545	0	11.8	23.9	-0.3
LOC401611	0	5.2	-2.8	13.2
HNRNPA0 (GeneID 10949)	0	4.5	5.3	3.8
MON2 (GeneID 23041)	0	5.5	9.7	1.3
TAF1A (GeneID 9015)	0	7.8	15.9	-0.2
MECR (GeneID 51102)	0	-7	-22.4	8.4
CILK1 (GeneID 22858)	0	7.3	2.7	11.9
LOC400963	0	30.1	26.1	34.2
CLK3 (GeneID 1198)	1	9.8	21	-1.5
SIGLEC11 (GeneID 114132)	1	12.5	7.2	17.9
TRPC4 (GeneID 7223)	0	5.1	-1.7	12
SLC9C2 (GeneID 284525)	0	1.7	1.3	2.1
LOC391105	-1	-5.3	-9.8	-0.8
LOC442710 (retired record) (GeneID 442710)	1	8.2	4.9	11.6
CA8 (GeneID 767)	-1	-7.6	-3	-12.2
CLP1 (GeneID 10978)	0	3.2	20.4	-13.9
KLK3 (GeneID 354)	-1	-17.4	-0.3	-34.5
ZSCAN21 (GeneID 7589)	0	7.6	4.2	11.1
ETFRF1 (GeneID 144363)	0	-0.6	20.7	-22
CYP2C9 (GeneID 1559)	0	-2.6	2.4	-7.5
RABL6 (GeneID 55684)	0	9.1	8.1	10
AFG1L (GeneID 246269)	1	10.8	9.5	12
LOC392582	0	5.9	9.7	2.1
RBM39 (GeneID 9584)	0	4.3	3.5	5.1
CCDC32 (GeneID 90416)	1	12.6	14.8	10.4
SUPT4H1 (GeneID 6827)	-1	-2.5	-15	9.9
LOC388460	0	19.3	11.1	27.5
CERS2 (GeneID 29956)	1	7.5	-1.1	16.1
CCDC191 (GeneID 57577)	0	1.2	5	-2.6
DCTPP1 (GeneID 79077)	-1	-3.6	-12.9	5.8
IRX1 (GeneID 79192)	0	10.7	12.9	8.5
H2BC17 (GeneID 8348)	-1	-12.2	-22	-2.4
LOC440507	0	1.5	-8.5	11.6
FCRL3 (GeneID 115352)	0	8.4	9.5	7.4
VPS8 (GeneID 23355)	0	12.4	3.6	21.3
SRP72 (GeneID 6731)	2 (active)	16	17.4	14.6
ATP5MC2 (GeneID 517)	0	8.5	12.5	4.4
